PubChem BioAssay AID1159584 – Peter MacCallum Cancer Centre – 2016
The deposit covers about 18,000 reagents; below is a part drawn at random. Not all columns of the deposit are shown. The record does not give: the amount of reagent, the time to read-out.

- Screen: 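Genes whose loss is lethal only together with E-cadherin loss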 (primary screen)
- Cell system: human MCF10A breast epithelial cells, parental and CDH1-null
- Reagents: siRNA against human genes
- Measurement: 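ATP luminescence (CellTiter-Glo) viability per line relative to mean mock wells over all plates, and the ratio of CDH1-null to parental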
- Reading the numbers: CDH1-null / parental viability ratio: higher = CDH1-null cells survive relatively better than parental; CDH1-null viability vs mock: higher = more viable CDH1-null cells
- Units: CDH1-null viability vs mock in fraction of mock

RSL24D1 (ribosomal L24 domain containing 1)
- CDH1-null / parental viability ratio: 1.23
- CDH1-null viability vs mock: 0.64

CA9 (carbonic anhydrase 9)
- CDH1-null / parental viability ratio: 1.02
- CDH1-null viability vs mock: 0.84

KCNIP1 (potassium voltage-gated channel interacting protein 1)
- CDH1-null / parental viability ratio: 1.17
- CDH1-null viability vs mock: 1.02

ADAM19 (ADAM metallopeptidase domain 19)
- CDH1-null / parental viability ratio: 1.23
- CDH1-null viability vs mock: 1.03

FGF14 (fibroblast growth factor 14)
- CDH1-null / parental viability ratio: 1.03
- CDH1-null viability vs mock: 0.68

ZNF362 (zinc finger protein 362)
- CDH1-null / parental viability ratio: 1.52
- CDH1-null viability vs mock: 0.94

PDSS1 (decaprenyl diphosphate synthase subunit 1)
- CDH1-null / parental viability ratio: 0.88
- CDH1-null viability vs mock: 0.92

UNC13D (unc-13 homolog D)
- CDH1-null / parental viability ratio: 0.97
- CDH1-null viability vs mock: 0.88

GALNT12 (polypeptide N-acetylgalactosaminyltransferase 12)
- CDH1-null / parental viability ratio: 1.03
- CDH1-null viability vs mock: 0.9

MTIF2 (mitochondrial translational initiation factor 2)
- CDH1-null / parental viability ratio: 1
- CDH1-null viability vs mock: 1.09

MYO1F (myosin IF)
- CDH1-null / parental viability ratio: 1.11
- CDH1-null viability vs mock: 0.98

RHBDF2 (rhomboid 5 homolog 2)
- CDH1-null / parental viability ratio: 1.11
- CDH1-null viability vs mock: 0.84

TMEM144 (transmembrane protein 144)
- CDH1-null / parental viability ratio: 0.93
- CDH1-null viability vs mock: 0.68

TTLL7 (tubulin tyrosine ligase like 7)
- CDH1-null / parental viability ratio: 0.97
- CDH1-null viability vs mock: 1.05

RBFA (ribosome binding factor A)
- CDH1-null / parental viability ratio: 0.67
- CDH1-null viability vs mock: 0.4

Looked up above.
Result for RSL24D1 (ribosomal L24 domain containing 1) in “CDH1-null / parental viability ratio”: 1.23
Value for PDSS1 (decaprenyl diphosphate synthase subunit 1) in “CDH1-null / parental viability ratio”: 0.88
Result of ADAM19 (ADAM metallopeptidase domain 19) under “CDH1-null / parental viability ratio”: 1.23

Continued:
BAG5 (BAG cochaperone 5)
- CDH1-null / parental viability ratio: 1.16
- CDH1-null viability vs mock: 1.16

OTUD3 (OTU deubiquitinase 3)
- CDH1-null / parental viability ratio: 0.94
- CDH1-null viability vs mock: 0.66

OPN1LW (opsin 1, long wave sensitive)
- CDH1-null / parental viability ratio: 0.76
- CDH1-null viability vs mock: 0.74

ZHX2 (zinc fingers and homeoboxes 2)
- CDH1-null / parental viability ratio: 1.15
- CDH1-null viability vs mock: 1.05

AHCY (adenosylhomocysteinase)
- CDH1-null / parental viability ratio: 1.1
- CDH1-null viability vs mock: 1.03

ZFAND2A (zinc finger AN1-type containing 2A)
- CDH1-null / parental viability ratio: 0.94
- CDH1-null viability vs mock: 0.84

DNAH3 (dynein axonemal heavy chain 3)
- CDH1-null / parental viability ratio: 0.86
- CDH1-null viability vs mock: 0.76

MRGPRD (MAS related GPR family member D)
- CDH1-null / parental viability ratio: 1.37
- CDH1-null viability vs mock: 1.03

CDC37 (cell division cycle 37, HSP90 cochaperone)
- CDH1-null / parental viability ratio: 0.68
- CDH1-null viability vs mock: 0.41
